The source of these data is publication PMC11085213, “Plastid Molecular Chaperone HSP90C Interacts with the SecA1 Subunit of Sec Translocase for Thylakoid Protein Transport” (Plants, 2024).

Amino acid sequences for entries named in this document (tags omitted). Residues count along the entry.
UniProt Q9SYI0, residues 73-1022: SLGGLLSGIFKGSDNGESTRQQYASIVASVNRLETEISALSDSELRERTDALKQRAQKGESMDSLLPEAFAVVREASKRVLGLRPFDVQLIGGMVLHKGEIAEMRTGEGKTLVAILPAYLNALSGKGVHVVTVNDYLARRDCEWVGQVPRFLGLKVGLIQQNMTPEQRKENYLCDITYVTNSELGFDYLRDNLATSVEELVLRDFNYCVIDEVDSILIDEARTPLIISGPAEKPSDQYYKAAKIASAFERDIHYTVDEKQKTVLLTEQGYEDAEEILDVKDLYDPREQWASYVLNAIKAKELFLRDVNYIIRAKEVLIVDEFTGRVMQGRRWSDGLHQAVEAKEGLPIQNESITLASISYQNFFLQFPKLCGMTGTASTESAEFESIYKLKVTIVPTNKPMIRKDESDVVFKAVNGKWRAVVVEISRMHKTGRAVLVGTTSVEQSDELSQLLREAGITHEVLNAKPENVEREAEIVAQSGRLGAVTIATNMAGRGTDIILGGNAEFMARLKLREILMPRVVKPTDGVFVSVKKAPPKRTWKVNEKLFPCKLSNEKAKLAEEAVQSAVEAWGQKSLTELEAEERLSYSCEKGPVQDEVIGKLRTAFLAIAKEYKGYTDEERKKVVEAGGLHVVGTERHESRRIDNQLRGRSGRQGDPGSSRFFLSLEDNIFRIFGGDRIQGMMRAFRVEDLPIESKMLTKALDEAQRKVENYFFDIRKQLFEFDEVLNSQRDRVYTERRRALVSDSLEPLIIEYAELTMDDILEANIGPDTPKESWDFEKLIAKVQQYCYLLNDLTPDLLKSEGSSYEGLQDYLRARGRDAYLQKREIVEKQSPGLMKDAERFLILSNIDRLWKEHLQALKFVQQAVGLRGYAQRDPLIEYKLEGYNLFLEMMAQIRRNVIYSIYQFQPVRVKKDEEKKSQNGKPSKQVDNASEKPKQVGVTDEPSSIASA
UniProt P23321, residues 1-85: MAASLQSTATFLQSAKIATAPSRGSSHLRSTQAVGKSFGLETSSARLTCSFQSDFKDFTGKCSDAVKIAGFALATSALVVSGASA

Assay in all cases: split reporter; YFP N- and C-half fusions transiently co-expressed in N. benthamiana mesophyll cells, confocal imaging of chloroplasts after 48 h; some samples treated with 10 mM sodium azide or 30 μM geldanamycin before imaging
In test [1] the target is SecA1-n/cYFP (Arabidopsis) (UniProt Q9SYI0).
In test [2] the target is PsbO1^1–85-n/cYFP (UniProt P23321).
For test [3], the target named is SecA1-n/cYFP (Arabidopsis) (UniProt Q9SYI0). The source holds these as a separate data set.

Where two headings read alike, the source gives them in different places. No constants are given. Whether binding was seen depends on the method and setting. Binding seen in cells or lysates may run through a third protein. Some results given as binding are weak or reduced against the parent protein; the word gives no strength. For some of these results: Where a sequence is shown, tags or fusion partners need not be part of it.

On to “PsbO1^1–85-n/cYFP (from UniProt P23321 1-85) (domain or fragment)”, for which, in test [1], the binding entry is “binds”. Turning to “SecA1-n/cYFP (from UniProt Q9SYI0 73-1022)”, the binding entry in test [1] was “binds”.

B1: HSP90C-c/nYFP (protein, UniProt Q9SIF2 61-780)
chain: CDAAVAEKETTEEGSGEKFEYQAEVSRLLDLIVHSLYSHKEVFLRELVSNASDALDKLRFLSVTEPSLLGDGGDLEIRIKPDPDNGTITITDTGIGMTKEELIDCLGTIAQSGTSKFLKALKENKDLGADNGLIGQFGVGFYSAFLVAEKVVVSTKSPKSDKQYVWESVADSSSYLIREETDPDNILRRGTQITLYLREDDKYEFAESTRIKNLVKNYSQFVGFPIYTWQEKSRTIEVEEDEPVKEGEEGEPKKKKTTKTEKYWDWELANETKPLWMRNSKEVEKGEYNEFYKKAFNEFLDPLAHTHFTTEGEVEFRSILYIPGMGPLNNEDVTNPKTKNIRLYVKRVFISDDFDGELFPRYLSFVKGVVDSDDLPLNVSREILQESRIVRIMRKRLIRKTFDMIQEISESENKEDYKKFWENFGRFLKLGCIEDTGNHKRITPLLRFFSSKNEEELTSLDDYIENMGENQKAIYYLATDSLKSAKSAPFLEKLIQKDIEVLYLVEPIDEVAIQNLQTYKEKKFVDISKEDLELGDEDEVKDREAKQEFNLLCDWIKQQLGDKVAKVQVSNRLSSSPCVLVSGKFGWSANMERLMKAQALGDTSSLEFMRGRRILEINPDHPIIKDLNAACKNAPESTEATRVVDLLYDTAIISSGFTPDSPAELGNKIYEMMAMAVGGRWGRVEEEEESSTVNEGDDKSGETEVVEPSEVRAESDPWQD
Take B1: in test [2], the binding result is given as “binds”.

B2: SecY1-c/nYFP (protein, UniProt Q38885 68-551)
chain: SSEASVFDPLGINPDETSGLSSIWESFVSLLSPSFESSSGNRRDKPSSGRGVAAAIEDSSIDFGDFFKGPLPGKFLKLLGFLALSRLGIYIPLGGVNREAFVGNLDQNSILSTLDTFSGGGIGRLGICSLGIVPFINAQIVFQLLAQVYPKLQDLQKKEGEAGRKKILQYTRYASVGFAIVQAIGQVFYLRPYVNDFSTEWVVSSVTLLTLGSVLTTYIGERISDLKLGNGTSLLIFTSIISYLPASFGRTTAEALQEGNYTGLGTIVVSFLLLVLGIVYVQEAERKIPLNYASRYTSKAGGLQKSAYLPFKVNSAGVMPIIFSTSSLALPATLARFTGISALKNVAFALTPGGSFYLPTNILLIAFFNYYYTFLQLDPDDVSEQLKRQGASIPLVRPGKSTALFIKTVLGRISVLGSAFLAVLAAGPAVVEQITHLTAFRGFAGTSVLILVGCATDTARKVQAEIISQKYKNIEFYELDKYDP
Turning to B2, in test [3], the binding result is recorded as “binds”.
